Assay results taken from PMC9588786.
These are yes or no findings as the source states them, for the method shown. For some of these results: In cells and extracts the contact can be indirect. Some results given as binding are weak or reduced against the parent protein; the word gives no strength.

Protein sequences, listed by entry. Tags and fused reporters are not part of them. Lines headed by an entry give the natural chain unless they say otherwise; changes in a name come on top.
UniProt P06730: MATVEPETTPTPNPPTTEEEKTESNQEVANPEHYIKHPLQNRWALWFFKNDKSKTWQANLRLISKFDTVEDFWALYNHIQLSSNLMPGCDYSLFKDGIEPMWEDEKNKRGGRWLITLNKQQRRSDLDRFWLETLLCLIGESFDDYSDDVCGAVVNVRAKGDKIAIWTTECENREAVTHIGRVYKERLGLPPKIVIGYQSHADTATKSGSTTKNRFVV

Tests used:
EIF4E-S209A mutant = EIF4E-S209A mutant (UniProt P06730); assay: co-IP; immunoprecipitation of the EIF4E-ALDH1B1 complex in EIF4E-knockdown cells re-expressing EIF4E mutants, treated with RSL3 (0.5 μM, 4 h)
[1] = biological target: eukaryotic initiation factor 4E (EIF4E) (human (endogenous in HT-1080 and Calu-1)) (UniProt P06730); assay: co-IP; immunoprecipitation of the EIF4E-ALDH1B1 complex in membrane protein extracts of Calu-1 cells treated with RSL3 (0.5 μM) and/or deferoxamine (100 μM) for 4 h
[2] = biological target: eukaryotic initiation factor 4E (EIF4E) (human (endogenous in HT-1080 and Calu-1)) (UniProt P06730); assay: co-IP; anti-EIF4E antibody (clone 5D11) with protein A agarose beads on cleared RIPA lysates of HT-1080 or Calu-1 cells, 4 °C, immunoblot of partners; cells untreated or treated with RSL3, 4EGI-1, 4E1RCat, deferoxamine, 20% FBS, staurosporine, or with EIF4G1 knock-down
His-EIF4E bait protein = His-EIF4E bait protein (UniProt P06730); assay: pull-down; 10 µg His-EIF4E bait on MagZ binding particles; about 2 µg prey protein added, 60 min; washes, SDS-PAGE; both purified
[3] = biological target: eukaryotic initiation factor 4E (EIF4E) (human (endogenous in HT-1080 and Calu-1)), P06730; assay: co-IP; anti-EIF4E antibody (clone 5D11) with protein A agarose beads on cleared RIPA lysates of HT-1080 or Calu-1 cells, 4 °C, immunoblot of partners; cells untreated or treated with RSL3, 4EGI-1, 4E1RCat, deferoxamine, 20% FBS, staurosporine, or with EIF4G1 knock-down; settings: remark: other sources report otherwise

Binder	binding [2]	binding (His-EIF4E bait protein)	also measured
ALDH1B1 recombinant protein (enzyme, UniProt P30837 18-517) RYSSAAALPSPILNPDIPYNQLFINNEWQDAVSKKTFPTVNPTTGEVIGHVAEGDRADVDRAVKAAREAFRLGSPWRRMDASERGRLLNRLADLVERDRVYLASLETLDNGKPFQESYALDLDEVIKVYRYFAGWADKWHGKTIPMDGQHFCFTRHEPVGVCGQIIPWNFPLVMQGWKLAPALATGNTVVMKVAEQTPLSALYLASLIKEAGFPPGVVNIITGYGPTAGAAIAQHVDVDKVAFTGSTEVGHLIQKAAGDSNLKRVTLELGGKSPSIVLADADMEHAVEQCHEALFFNMGQCCCAGSRTFVEESIYNEFLERTVEKAKQRKVGNPFELDTQQGPQVDKEQFERVLGYIQLGQKEGAKLLCGGERFGERGFFIKPTVFGGVQDDMRIAKEEIFGPVQPLFKFKKIEEVVERANNTRYGLAAAVFTRDLDKAMYFTQALQAGTVWVNTYNIVTCHTPFGGFKESGNGRELGEDGLKAYTEVKTVTIKVPQKNS	–	binds	–
EIF4G2, P78344 1-907 (protein) MESAIAEGGASRFSASSGGGGSRGAPQHYPKTAGNSEFLGKTPGQNAQKWIPARSTRRDDNSAANNSANEKERHDAIFRKVRGILNKLTPEKFDKLCLELLNVGVESKLILKGVILLIVDKALEEPKYSSLYAQLCLRLAEDAPNFDGPAAEGQPGQKQSTTFRRLLISKLQDEFENRTRNVDVYDKRENPLLPEEEEQRAIAKIKMLGNIKFIGELGKLDLIHESILHKCIKTLLEKKKRVQLKDMGEDLECLCQIMRTVGPRLDHERAKSLMDQYFARMCSLMLSKELPARIRFLLQDTVELREHHWVPRKAFLDNGPKTINQIRQDAVKDLGVFIPAPMAQGMRSDFFLEGPFMPPRMKMDRDPLGGLADMFGQMPGSGIGTGPGVIQDRFSPTMGRHRSNQLFNGHGGHIMPPTQSQFGEMGGKFMKSQGLSQLYHNQSQGLLSQLQGQSKDMPPRFSKKGQLNADEISLRPAQSFLMNKNQVPKLQPQITMIPPSAQPPRTQTPPLGQTPQLGLKTNPPLIQEKPAKTSKKPPPSKEELLKLTETVVTEYLNSGNANEAVNGVREMRAPKHFLPEMLSKVIILSLDRSDEDKEKASSLISLLKQEGIATSDNFMQAFLNVLDQCPKLEVDIPLVKSYLAQFAARAIISELVSISELAQPLESGTHFPLFLLCLQQLAKLQDREWLTELFQQSKVNMQKMLPEIDQNKDRMLEILEGKGLSFLFPLLKLEKELLKQIKLDPSPQTIYKWIKDNISPKLHVDKGFVNILMTSFLQYISSEVNPPSDETDSSSAPSKEQLEQEKQLLLSFKPVMQKFLHDHVDLQVSALYALQVHCYNSNFPKGMLLRFFVHFYDMEIIEEEAFLAWKEDITQEFPGKGKALFQVNQWLTWLETAEEEESEEEAD	–	–	binding [3]: binds
ALDH3A1 recombinant protein (enzyme, UniProt P30838 1-453) MSKISEAVKRARAAFSSGRTRPLQFRIQQLEALQRLIQEQEQELVGALAADLHKNEWNAYYEEVVYVLEEIEYMIQKLPEWAADEPVEKTPQTQQDELYIHSEPLGVVLVIGTWNYPFNLTIQPMVGAIAAGNSVVLKPSELSENMASLLATIIPQYLDKDLYPVINGGVPETTELLKERFDHILYTGSTGVGKIIMTAAAKHLTPVTLELGGKSPCYVDKNCDLDVACRRIAWGKFMNSGQTCVAPDYILCDPSIQNQIVEKLKKSLKEFYGEDAKKSRDYGRIISARHFQRVMGLIEGQKVAYGGTGDAATRYIAPTILTDVDPQSPVMQEEIFGPVLPIVCVRSLEEAIQFINQREKPLALYMFSSNDKVIKKMIAETSSGGVAANDVIVHITLHSLPFGGVGNSGMGSYHGKKSFETFSHRRSCLVRPLMNDEGLKVRYPPSPAKMTQH	–	no binding (tested: about 2 µg ALDH3A1 protein added)	–

More lines, main results first:

binding [2]	Binder	binding (His-EIF4E bait protein)	also measured
binds	aldehyde dehydrogenase 1 family member B1 (ALDH1B1) (enzyme, UniProt P30837 18-517) RYSSAAALPSPILNPDIPYNQLFINNEWQDAVSKKTFPTVNPTTGEVIGHVAEGDRADVDRAVKAAREAFRLGSPWRRMDASERGRLLNRLADLVERDRVYLASLETLDNGKPFQESYALDLDEVIKVYRYFAGWADKWHGKTIPMDGQHFCFTRHEPVGVCGQIIPWNFPLVMQGWKLAPALATGNTVVMKVAEQTPLSALYLASLIKEAGFPPGVVNIITGYGPTAGAAIAQHVDVDKVAFTGSTEVGHLIQKAAGDSNLKRVTLELGGKSPSIVLADADMEHAVEQCHEALFFNMGQCCCAGSRTFVEESIYNEFLERTVEKAKQRKVGNPFELDTQQGPQVDKEQFERVLGYIQLGQKEGAKLLCGGERFGERGFFIKPTVFGGVQDDMRIAKEEIFGPVQPLFKFKKIEEVVERANNTRYGLAAAVFTRDLDKAMYFTQALQAGTVWVNTYNIVTCHTPFGGFKESGNGRELGEDGLKAYTEVKTVTIKVPQKNS	–	binding (EIF4E-S209A mutant): binds; binding [1]: binds
no binding	aldehyde dehydrogenase 3 family member A1 (ALDH3A1) (enzyme, UniProt P30838 1-453) MSKISEAVKRARAAFSSGRTRPLQFRIQQLEALQRLIQEQEQELVGALAADLHKNEWNAYYEEVVYVLEEIEYMIQKLPEWAADEPVEKTPQTQQDELYIHSEPLGVVLVIGTWNYPFNLTIQPMVGAIAAGNSVVLKPSELSENMASLLATIIPQYLDKDLYPVINGGVPETTELLKERFDHILYTGSTGVGKIIMTAAAKHLTPVTLELGGKSPCYVDKNCDLDVACRRIAWGKFMNSGQTCVAPDYILCDPSIQNQIVEKLKKSLKEFYGEDAKKSRDYGRIISARHFQRVMGLIEGQKVAYGGTGDAATRYIAPTILTDVDPQSPVMQEEIFGPVLPIVCVRSLEEAIQFINQREKPLALYMFSSNDKVIKKMIAETSSGGVAANDVIVHITLHSLPFGGVGNSGMGSYHGKKSFETFSHRRSCLVRPLMNDEGLKVRYPPSPAKMTQH	–	–
